These results are taken from publication PMC7324386.

What all share (assay): proximity labelling; BioID2-tagged bait in 10-day-old transgenic Arabidopsis seedlings, 50 µM biotin for 16 h at room temperature, streptavidin-coated beads, label-free quantitative MS, ratiometric analysis against controls; the SUN1 bait also with MG132 treatment
For assay [1], the target named is T1, HA-BioID2-SUN1 (Arabidopsis thaliana) (UniProt Q9FF75).
T1 sequence: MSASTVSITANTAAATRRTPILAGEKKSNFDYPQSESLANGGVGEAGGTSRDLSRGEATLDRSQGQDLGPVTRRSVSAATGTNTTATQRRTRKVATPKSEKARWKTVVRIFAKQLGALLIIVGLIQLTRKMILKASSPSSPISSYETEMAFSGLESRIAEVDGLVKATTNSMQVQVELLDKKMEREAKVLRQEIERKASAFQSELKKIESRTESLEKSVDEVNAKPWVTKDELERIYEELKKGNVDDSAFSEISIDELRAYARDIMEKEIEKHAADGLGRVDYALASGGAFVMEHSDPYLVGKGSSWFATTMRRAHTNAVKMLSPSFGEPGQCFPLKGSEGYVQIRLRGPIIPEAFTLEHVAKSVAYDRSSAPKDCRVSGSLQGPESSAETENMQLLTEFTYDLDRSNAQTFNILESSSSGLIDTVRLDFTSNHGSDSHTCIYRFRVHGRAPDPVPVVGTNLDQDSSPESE

Assay [2] addresses T2, PUX5-BioID2-HA (Arabidopsis thaliana) (UniProt Q7Y175).
T2 sequence: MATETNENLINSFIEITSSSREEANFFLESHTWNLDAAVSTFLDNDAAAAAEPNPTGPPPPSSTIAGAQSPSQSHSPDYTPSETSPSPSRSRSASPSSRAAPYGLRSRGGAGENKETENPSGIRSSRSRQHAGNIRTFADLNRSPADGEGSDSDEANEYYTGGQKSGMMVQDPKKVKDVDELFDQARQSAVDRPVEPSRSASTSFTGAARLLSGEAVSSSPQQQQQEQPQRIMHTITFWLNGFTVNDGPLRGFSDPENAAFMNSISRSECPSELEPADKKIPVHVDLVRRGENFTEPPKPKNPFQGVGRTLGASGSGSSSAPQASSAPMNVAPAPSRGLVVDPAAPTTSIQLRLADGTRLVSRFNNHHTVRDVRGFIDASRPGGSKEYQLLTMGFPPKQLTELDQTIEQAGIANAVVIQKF

Assay [3] has as its target T3, HA-BioID2-WIT1 (Arabidopsis thaliana) (UniProt Q8L7E5).
T3 sequence: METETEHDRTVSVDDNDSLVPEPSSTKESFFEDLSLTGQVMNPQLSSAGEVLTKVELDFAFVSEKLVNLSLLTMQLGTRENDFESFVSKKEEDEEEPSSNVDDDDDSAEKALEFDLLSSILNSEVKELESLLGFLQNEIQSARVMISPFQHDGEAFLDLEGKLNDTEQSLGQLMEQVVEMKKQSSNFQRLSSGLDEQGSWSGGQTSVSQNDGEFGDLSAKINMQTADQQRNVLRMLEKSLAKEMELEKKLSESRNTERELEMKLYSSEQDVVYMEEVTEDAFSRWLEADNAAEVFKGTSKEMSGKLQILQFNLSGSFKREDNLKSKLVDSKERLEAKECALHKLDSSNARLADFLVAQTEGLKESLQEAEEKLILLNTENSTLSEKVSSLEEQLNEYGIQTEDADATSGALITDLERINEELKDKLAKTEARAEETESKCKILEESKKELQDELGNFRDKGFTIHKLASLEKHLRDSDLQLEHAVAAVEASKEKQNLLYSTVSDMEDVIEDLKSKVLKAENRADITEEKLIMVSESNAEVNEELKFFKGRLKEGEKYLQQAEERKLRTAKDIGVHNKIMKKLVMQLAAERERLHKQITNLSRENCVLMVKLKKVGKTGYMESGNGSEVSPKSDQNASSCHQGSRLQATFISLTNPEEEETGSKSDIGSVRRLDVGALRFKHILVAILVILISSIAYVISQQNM

No constants are given. Whether binding was seen depends on the method and setting. Binding seen in cells or lysates may run through a third protein. These calls come from enrichment with a bait or labelling near it, and not all partners need be listed. Sequences can lack the tags named with a protein.

CDC48C: the binding result in assay [1] is recorded as “binds”.

CDC48B: the binding entry in assay [2] and in assay [1] was “binds” each time.

B1: WIP3 (protein, UniProt Q94AV5 1-459)
chain: MNESVPDSVEDNGNSVPANGLLVLPDNDHEEGGVGSPQRSNSVESPGGSVHSTRKGFGLKKWRRIKRDGPVRDEAAPVDDGSKLLKRGLAGLVNPPSKHVEFSSVEARQSSEGSVGSVNMVHHPGVANGFSPDIGCMFAVGQAFEKSEEHSGNTIGGKNVVGGKVVSGSQEKLWSDTIKRASEERGDIEKEKPCSSLDSDLRSSDFVFSTGSVSVGNHGEKDERLTMNYIGGFSNEGQVKEEVQTYSRSENGNKEDDGESKKNNNHWADKDALADSIRSFAVLQEVLWKEVQSFQELGKESVLLHSNTDELSSDQPSHQNCKEDNSTSSGSKALILKEKVKLLEHKLEEARAALEAKEARIQELENSKIESELECIFQRKIETEIEHLMLTRSLSSLQVLQETKKLHSLKEDPVSNRGNILGKTCKLGFYILTQLILLVSILRFLVLQFSPASRLVIPT
In the case of B1, in assay [3], the binding entry is “binds”.

B2: WIP1 (protein, UniProt Q8GXA4 1-489)
chain: MDLESESSALESVDDNVLIQQSASNVCDDGRSLDNGSCSDESVKLLSTSNSVELGKPMSFDSPGDGGGAYSPVLKGQGLRKWRRIRRDLVKDTSANMENSKALKRGLSGVAHSHGKQMQFQSPEVEQESQGSVGSVNMLKSSGDGFDILGSSGYDSRFVAGVGFSAGMDLEIDDDRSSKSSTVARAPKVIRYEKPMISSGQGGNIRVENSKKHRGESVDFEKENSYSSLESDSRKQSGRMMDYNGENGETSMRKDDAGGEGGESINTDNRYSDEMDPLTEAINGFLALQDALEKEVQQFQEIGNEPMPQHHEQVSEANSPHPEIVTLVNNVEQLENMLEETRSMLEVKESHIRDLESTTNQSKHSWGGTEIVVEDIFRQKIEAEIEYLIYSRSIDNLNSQMKLIDEQESLAEEQTHETLNKLGRVQTKAANFTNRAQDLQNDCIEITGTIKKRACKITSYVLIQLVLLSTVVLLLLSQLLPEPDTVVPT
For B2, the binding result in assay [3] is “binds”.

B3: RanGAP2 (protein, UniProt Q9M651 1-545)
chain: MADILDSRPHAFSIKLWPPSLPTRKALIERITNNFSSKTIFTEKYGSLTKDQATENAKRIEDIAFSTANQQFEREPDGDGGSAVQLYAKECSKLILEVLKKGPVAKVAARELISEDSVSPRETFFDISKGKRAFIEAEEAEELLKPLKEPGNAYTKICFSNRSFGLGAARVAEPILASLKDQLKEVDLSDFVAGRPELEALEVMNIFSDALQGSILSSLNLSDNALGEKGVRAFGALLKSLSSLEELYLMNDGISKEAAQAVSELIPSTENLRVLHFHNNMTGDEGALAIAEVVKRSPLLENFRCSSTRVGSKGGIALSEALEHCTHMEKLDLRDNMFGTEAGVSLSKTLSSFKHMTELYLSYLNLEDEGAIAIVNALKESASPIEVLEMAGNDITVEAASAIAACVAAKQDLNKLNLSENELKDEGCVQIANCIEEGHSKLQYIDMSTNYIRRAGARALAHVVVKKEAFKLLNIDGNIISEEGIEELKEIFKKSPELLGALDENDPDGEEDDDDEEDEEDEENEGNGNGELESKLKNLEVNQED
As for B3, the binding entry in assay [3] is reported as “binds”.

B4: RanGAP1 (protein, UniProt Q9LE82 1-535)
chain: MDHSAKTTQNRVLSVKMWPPSKSTRLMLVERMTKNITTPSIFSRKYGLLSVEEAEQDAKRIEDLAFATANKHFQNEPDGDGTSAVHVYAKESSKLMLDVIKRGPQEESEVEVSKDGDVFFDISGGSRAFIEEEEARDLLRPLADPRNSYTKIRFSNRSFGSEAAKFAASVLSSIKDQLTEVDLSDFVAGRPEAEALEVMNMFSSALEGSKLRYLNLSDNALGEKGIRAFASLINSQHDLEELYLMNDGISEDAARAVRELLPSTDKIRVLQFHNNMTGDEGATAIAEIVRECPSLEDFRCSSTRIGSEGGVALAEALEHCSHLKKLDLRDNMFGVEGGIALAKTLSVLTHLTEIYMSYLNLEDEGTEALSEALLKSAPSLEVLELAGNDITVKSTGNLAACIASKQSLAKLNLSENELKDEGTILIAKAVEGHDQLVEVDLSTNMIRRAGARALAQTVVKKNTFKLLNINGNFISEEGIDEVNDMFKDCLDKLVPLDDNDPEGEDFEDEDEEEEGEDGNELESKLGSLKIKQGEE
In the case of B4, the binding entry in assay [3] is “binds”.

B5: NPL4A (protein, UniProt O82264 1-413)
chain: MMMLRIRSRDGLERVTAEGAHITVSQLKTLIADQLQIPLHKQTLSTNRDLLLAKTPADLLAFTDLTDPNLPLSSLNLGHGSMLYLAYDGERSIPGAPPVTPAGSFGRKMTVDDLIARQMRVTRQETSHCDSVSFDRDAANAFQHYVNESLAFAVKRGGFMYGTVTEEGQVEVDFIYEPPQQGTEANLILMRDADEEKRVDAIAMGLGMRRVGFIFNQTVVQDKTEYTLSNAEVLQAAELHAESELKEWVTAVVKLEVNEDGGADVHFEAFQMSDMCIRLFKEEWFETEIMPDDDPKLSKMKKEVVVGVKDLKEVDNDFFLVLVRILDHQGPLSSTFPIENRSSRATMRALKTHLDRAKSLPLVKKMSDFHLLLFVAQFLDVSSDVPALAECVRLQSPVPEGYALLIESMANTC
On to B5, for which the binding result in assay [2] and in assay [1] was “binds” throughout.

B6: KAKU4 (protein, UniProt Q949W6 1-485)
chain: MDSVSGYAAGAGQPRVGGKIVRPRRTAVVRTPCERPVQRSRDPPQQNPSWISRLVYKPASVIASGAGKFISSVVFSDSSSSSEEDEDSSSDIDGDEDVEKNNPDFTEEDLLSAQQPSIQRLSSKRVIEQLLLQETFAREEGDRLIDIIKARVVDHPSVPSAIETSHDDYGLTSDVNVGEMSNTAVMEARKWLEEKKSGSSSKYKATEDGAGSPVDVAKSYMRARLPWGSPAANNLDFRSPSSARVQGTPLPYSAGNFSSSKLKRKSGSNQSWNIQDEIRKVRAKATEEMLKSPSSVASLEPKYSPYVLATDMLKGNASSLNADGAVRNEQSRALPNSAIPTSEHNQTTEANQAVKETGVLHTRSRGVGLEETFISTQGVKPSEDTNTAPQSGTAVDDFNDQDGDFIQPTSTIGNTTNAVLALGATLDPTGNSCIPKDVFETSKEADEIGASRHTSNGFPSSSPSGYGRSTKTHTTRRNQGFSAYS
With B6, the binding entry in assay [1] is “binds”.

B7: CRWN2 (protein, UniProt Q9SAF6 1-1128)
chain: MTPRSETHKIGGVTNPRNADRKGKAVAFSDDLVIPTLPPPPIGTLTGQGVSRGHTDDMDMGDWRRFREVGLLNEASMEKKDQEALLEKISTLEKELYGYQHNMGLLLMENKELVSKHEQLNQAFQEAQEILKREQSSHLYALTTVEQREENLRKALGLEKQCVQELEKALREIQEENSKIRLSSEAKLVEANALVASVNGRSSDVENKIYSAESKLAEATRKSSELKLRLKEVETRESVLQQERLSFTKERESYEGTFQKQREYLNEWEKKLQGKEESITEQKRNLNQREEKVNEIEKKLKLKEKELEEWNRKVDLSMSKSKETEEDITKRLEELTTKEKEAHTLQITLLAKENELRAFEEKLIAREGTEIQKLIDDQKEVLGSKMLEFELECEEIRKSLDKELQRKIEELERQKVEIDHSEEKLEKRNQAMNKKFDRVNEKEMDLEAKLKTIKEREKIIQAEEKRLSLEKQQLLSDKESLEDLQQEIEKIRAEMTKKEEMIEEECKSLEIKKEEREEYLRLQSELKSQIEKSRVHEEFLSKEVENLKQEKERFEKEWEILDEKQAVYNKERIRISEEKEKFERFQLLEGERLKKEESALRVQIMQELDDIRLQRESFEANMEHERSALQEKVKLEQSKVIDDLEMMRRNLEIELQERKEQDEKDLLDRMAQFEDKRMAELSDINHQKQALNREMEEMMSKRSALQKESEEIAKHKDKLKEQQVEMHNDISELSTLSINLKKRREVFGRERSRFLAFVQKLKDCGSCGQLVNDFVLSDLQLPSNDEVAILPPIGVLNDLPGSSNASDSCNIKKSLDGDASGSGGSRRPSMSILQKCTSIIFSPSKRVEHGIDTGKPEQRLSSSVAVGMETKGEKPLPVDLRLRPSSSSIPEEDEEYTDSRVQETSEGSQLSEFQSSRRGRGRPRKAKPALNPTSSVKHASLEESSKDELSGHVSVTSKKTTGGGGRKRQHIDDTATGGKRRRQQTVAVLPQTPGQRHYNLRRKKTVDQVPADVEDNAAAGEDDADIAASAPSKDTVEETVVETLRARRIETNADVVSAENNGDVPVANVEPTVNEDTNEDGDEEEDEAQDDDNEENQDDDDDDDGDDDGSPRPGEGSIRKKLWTFLTT
Regarding B7, in assay [1], the binding result is given as “binds”.
